Taken from: PubChem BioAssay AID504791 (Drosophila RNAi Screening Center, 2011)

Assay: 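Factors in Argonaute-based small RNA production and activity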 (primary screen)
Cells: Drosophila S2-derived reporter cells
Reagents: long dsRNA against Drosophila genes, about 150-250 ng dsRNA per well (siRNA assay); about 80-120 ng (miRNA assay)
Duration: about 5 days (siRNA assay); about 4 days (miRNA assay)
Challenge: copper sulfate induction of reporters: 25 µM (siRNA assay); 200 mM stated (miRNA assay), 1-2 days before reading
Detection: 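Per-well ratio of Renilla over firefly light, expressed relative to that plate's average ratio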
Reading the numbers: siRNA reporter hit score: higher = 3 marks a strong hit with raised ratio; -3 a strong hit with lowered ratio
Call rule: 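a well was a first-pass pick when its plate-scaled ratio rose above 1.5 (siRNA assay) or 1.6 (miRNA assay), or dropped below 0.6; a gene counted only if two separate dsRNAs agreed on retest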
In all, the deposit lists about 23,000 reagents; this is an unselected part of those with a known target gene and a result. In the full data, 199 (0.86%) are marked active. 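Plate-scaled ratios behind the calls are not deposited; printed light signals are raw; many rows marked increased or decreased are still called inactive.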 Names joined by + are all predicted targets of the reagent. Not all columns of the deposit are shown.

Gene	amplicon	siRNA reporter hit score	stable siRNA reporter change	miRNA reporter change	stable assay Renilla, run 1 (luminescence)	call
CG42755 (retired record)	DRSC09105				5391	inactive
CG42755 (retired record)	DRSC09106				4364	inactive
Cap-D3	DRSC02349				7570	inactive
CG1647	DRSC15134				7576	inactive
Edg84A	DRSC12594				7727	inactive
ACXC	DRSC00846				6326	inactive
CG32354	DRSC10763				8464	inactive
CG32354	DRSC10775				4964	inactive
CG32354	DRSC21919				10173	inactive
clu	DRSC07181				11442	inactive
CG11050	DRSC02125	3		reporter ratio lowered past the hit cutoff	30824	inactive
Polr2I	DRSC16832				4812	inactive
lin	DRSC07644				6879	inactive
AkhR	DRSC03329				11787	inactive
CG32313	DRSC21450				10015	inactive
IP3K2	DRSC19500				5378	inactive
IP3K2	DRSC19747				4408	inactive
IP3K2	DRSC22614				2911	inactive
Nepl9	DRSC02255				7489	inactive
Prosalpha2	DRSC16798				5655	inactive
CG14445	DRSC17938				6603	inactive
Cyp6d2	DRSC04606				4850	inactive
CG8300	DRSC18426				5692	inactive
CG8300	DRSC23231				3531	inactive
stc	DRSC03620				3.44e5	inactive
Bfc	DRSC08623				5476	inactive
Icmt	DRSC09834				6075	inactive
Tektin-C	DRSC09741				6496	inactive
PIG-A	DRSC06982				8010	inactive
stai	DRSC22235				10319	inactive
ttm50	DRSC18587				7314	inactive
ValRS	DRSC06864				8374	inactive
lmgA + lmgB	DRSC03566				6527	inactive
Culd	DRSC10262				8019	inactive
tth	DRSC19435				6395	inactive
Srr	DRSC16382				7022	inactive
ssp7	DRSC18878				5811	inactive
Sdr	DRSC15517				7804	inactive
CG15198	DRSC19645				5391	inactive
msn	DRSC07990				4968	inactive
msn	DRSC08498				5430	inactive
CG3287 (retired record)	DRSC04991				7282	inactive
CG34253	DRSC09531				5655	inactive
net	DRSC00309				7387	inactive
nkt	DRSC10144				5240	inactive
Ork1	DRSC20266				6571	inactive
CG4935	DRSC01924				8285	inactive
Nlp	DRSC16759				7613	inactive
CG6142	DRSC15976				7215	inactive
Ir100a	DRSC14329				3899	inactive
RanBPM	DRSC06079				7895	inactive
sky	DRSC02383				13372	inactive
sky	DRSC03214				16767	inactive
sky	DRSC03215				7438	inactive
CG32988	DRSC02692				7195	inactive
NAAT1	DRSC18300				6184	inactive
CG14615	DRSC20627				6387	inactive
Nmd3	DRSC18687				8821	inactive
Nmd3	DRSC22834				3475	inactive
CG7907	DRSC16339				8166	inactive
Ubc2	DRSC01137				5559	inactive
Ubc2	DRSC03468				7248	inactive
CG9896	DRSC03962				6510	inactive
CG9896	DRSC04594				5567	inactive
Gug	DRSC11179				5739	inactive
smid	DRSC11398				6011	inactive
MED16	DRSC04506				4515	inactive
CG34283	DRSC13313				5122	inactive
dpr8	DRSC19406				4952	inactive
dpr8	DRSC19600				5020	inactive
dpr8	DRSC19938				5116	inactive
dpr8	DRSC19939		reporter ratio raised past the hit cutoff		6631	inactive
Rae1	DRSC04577				6050	inactive
CG31365	DRSC15610				7444	inactive
knrl	DRSC11892				7282	inactive
knrl	DRSC23245				4556	inactive
CG18596	DRSC15355				8651	inactive
futsch	DRSC17688				7156	inactive
futsch	DRSC17949				4051	inactive
futsch	DRSC17952				8513	inactive
futsch	DRSC18543				6606	inactive
CG14695	DRSC14918				7120	inactive
rdgC	DRSC11387				6842	inactive
